Data published in PMC4691244.
Results are given in words; binding and its absence hold for the method and conditions named. Binding seen in cells or lysates may run through a third protein. Some binding calls cover weakened binding; strength is not graded here. For some assays here: Sequences can lack the tags named with a protein.

Sequences of proteins named here, by UniProt entry; tags and fusion partners are left off.
UniProt Q9NPD3: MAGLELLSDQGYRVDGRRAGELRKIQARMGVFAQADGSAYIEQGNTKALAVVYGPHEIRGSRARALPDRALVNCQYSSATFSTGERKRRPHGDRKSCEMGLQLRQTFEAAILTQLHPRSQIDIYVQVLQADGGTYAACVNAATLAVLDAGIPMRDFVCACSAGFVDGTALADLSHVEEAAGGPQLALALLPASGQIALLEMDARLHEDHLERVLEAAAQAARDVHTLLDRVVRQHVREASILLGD
UniProt Q9NQT5: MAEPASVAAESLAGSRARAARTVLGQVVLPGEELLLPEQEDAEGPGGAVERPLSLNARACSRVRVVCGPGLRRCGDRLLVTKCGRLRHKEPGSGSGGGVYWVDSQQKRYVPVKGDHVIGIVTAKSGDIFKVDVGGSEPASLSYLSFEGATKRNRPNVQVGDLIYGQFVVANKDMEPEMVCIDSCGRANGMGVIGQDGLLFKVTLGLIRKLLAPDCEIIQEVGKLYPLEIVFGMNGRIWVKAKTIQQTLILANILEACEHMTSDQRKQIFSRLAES

T1: FLAG-DGCR8 (human) (UniProt Q8WYQ5)
T1 sequence: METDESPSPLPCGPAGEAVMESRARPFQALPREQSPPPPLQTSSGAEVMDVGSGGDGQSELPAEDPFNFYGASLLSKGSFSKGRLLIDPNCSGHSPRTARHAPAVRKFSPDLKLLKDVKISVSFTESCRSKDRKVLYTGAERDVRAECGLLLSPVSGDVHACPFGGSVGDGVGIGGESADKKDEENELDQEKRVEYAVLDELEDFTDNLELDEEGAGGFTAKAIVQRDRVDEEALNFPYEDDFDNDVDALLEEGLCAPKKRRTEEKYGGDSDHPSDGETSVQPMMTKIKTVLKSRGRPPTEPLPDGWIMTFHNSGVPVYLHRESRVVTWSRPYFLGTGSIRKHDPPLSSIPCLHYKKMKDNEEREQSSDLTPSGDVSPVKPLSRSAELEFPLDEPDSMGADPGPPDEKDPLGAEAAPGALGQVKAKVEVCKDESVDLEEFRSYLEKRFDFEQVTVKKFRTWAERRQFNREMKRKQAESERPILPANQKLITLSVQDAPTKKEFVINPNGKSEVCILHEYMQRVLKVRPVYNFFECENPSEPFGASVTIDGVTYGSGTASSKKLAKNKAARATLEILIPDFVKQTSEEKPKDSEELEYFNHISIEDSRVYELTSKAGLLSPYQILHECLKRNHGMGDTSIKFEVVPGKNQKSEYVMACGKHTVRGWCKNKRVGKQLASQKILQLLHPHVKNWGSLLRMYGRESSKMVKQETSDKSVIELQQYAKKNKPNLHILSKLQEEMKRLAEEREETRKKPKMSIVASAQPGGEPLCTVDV

T2: FLAG-Drosha (UniProt Q9NRR4)
T2 sequence: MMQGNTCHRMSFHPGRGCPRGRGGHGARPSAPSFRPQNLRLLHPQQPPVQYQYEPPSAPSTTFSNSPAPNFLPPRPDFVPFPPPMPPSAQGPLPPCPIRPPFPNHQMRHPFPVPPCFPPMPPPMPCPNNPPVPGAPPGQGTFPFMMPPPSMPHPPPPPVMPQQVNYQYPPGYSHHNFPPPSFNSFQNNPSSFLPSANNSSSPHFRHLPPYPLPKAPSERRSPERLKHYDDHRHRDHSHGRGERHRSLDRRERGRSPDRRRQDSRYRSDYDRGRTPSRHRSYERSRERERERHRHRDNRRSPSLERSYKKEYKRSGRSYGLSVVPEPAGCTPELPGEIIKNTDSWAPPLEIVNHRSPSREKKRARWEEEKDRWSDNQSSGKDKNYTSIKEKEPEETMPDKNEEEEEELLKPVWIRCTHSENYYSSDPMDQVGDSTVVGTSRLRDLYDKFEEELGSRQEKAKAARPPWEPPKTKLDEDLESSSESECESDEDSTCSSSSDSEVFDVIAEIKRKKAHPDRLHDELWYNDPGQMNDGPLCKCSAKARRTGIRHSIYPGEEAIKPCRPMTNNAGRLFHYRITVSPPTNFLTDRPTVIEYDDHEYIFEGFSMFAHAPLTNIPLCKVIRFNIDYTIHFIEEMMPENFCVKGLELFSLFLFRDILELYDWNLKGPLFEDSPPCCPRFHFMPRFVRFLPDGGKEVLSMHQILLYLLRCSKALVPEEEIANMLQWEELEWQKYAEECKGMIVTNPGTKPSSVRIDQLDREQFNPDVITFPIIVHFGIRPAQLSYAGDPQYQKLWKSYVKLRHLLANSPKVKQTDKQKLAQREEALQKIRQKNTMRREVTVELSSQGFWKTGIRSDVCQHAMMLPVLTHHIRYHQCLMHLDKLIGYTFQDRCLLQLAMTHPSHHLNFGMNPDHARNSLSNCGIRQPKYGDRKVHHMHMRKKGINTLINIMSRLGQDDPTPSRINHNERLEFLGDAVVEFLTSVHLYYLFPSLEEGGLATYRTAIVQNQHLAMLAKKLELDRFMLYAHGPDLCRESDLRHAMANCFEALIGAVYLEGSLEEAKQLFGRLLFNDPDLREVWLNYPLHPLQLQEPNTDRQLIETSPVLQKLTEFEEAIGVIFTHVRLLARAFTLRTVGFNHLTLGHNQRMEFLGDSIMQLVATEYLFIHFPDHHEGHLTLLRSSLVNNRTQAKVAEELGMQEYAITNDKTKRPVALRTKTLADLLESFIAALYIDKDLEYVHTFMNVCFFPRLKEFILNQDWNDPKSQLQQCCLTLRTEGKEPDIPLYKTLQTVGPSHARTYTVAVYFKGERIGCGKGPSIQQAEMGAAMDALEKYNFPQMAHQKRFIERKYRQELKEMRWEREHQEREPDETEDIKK

T3: T7-DGCR8 (human) (UniProt Q8WYQ5)
T3 sequence: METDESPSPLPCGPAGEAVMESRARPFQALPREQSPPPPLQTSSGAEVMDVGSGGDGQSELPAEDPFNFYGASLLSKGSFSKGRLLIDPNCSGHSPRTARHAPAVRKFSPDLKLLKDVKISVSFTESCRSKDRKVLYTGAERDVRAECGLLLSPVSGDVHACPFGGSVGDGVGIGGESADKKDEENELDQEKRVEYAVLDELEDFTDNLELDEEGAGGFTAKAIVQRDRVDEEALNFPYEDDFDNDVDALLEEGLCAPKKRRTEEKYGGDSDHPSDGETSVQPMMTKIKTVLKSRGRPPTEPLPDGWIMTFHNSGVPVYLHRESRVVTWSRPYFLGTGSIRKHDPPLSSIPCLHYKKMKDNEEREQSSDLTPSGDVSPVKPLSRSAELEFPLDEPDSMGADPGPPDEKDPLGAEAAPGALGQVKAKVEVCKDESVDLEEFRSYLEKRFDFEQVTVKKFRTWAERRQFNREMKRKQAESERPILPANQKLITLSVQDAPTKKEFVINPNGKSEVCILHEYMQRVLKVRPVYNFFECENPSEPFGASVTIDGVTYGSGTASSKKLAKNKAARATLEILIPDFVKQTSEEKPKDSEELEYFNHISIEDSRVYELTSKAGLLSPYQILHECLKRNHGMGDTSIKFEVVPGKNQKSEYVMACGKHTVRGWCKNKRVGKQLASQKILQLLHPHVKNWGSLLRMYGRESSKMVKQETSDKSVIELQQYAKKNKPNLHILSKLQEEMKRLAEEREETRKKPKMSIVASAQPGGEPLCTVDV

T4: hRRP6 (human (endogenous in HEK293T)) (UniProt Q01780)
T4 sequence: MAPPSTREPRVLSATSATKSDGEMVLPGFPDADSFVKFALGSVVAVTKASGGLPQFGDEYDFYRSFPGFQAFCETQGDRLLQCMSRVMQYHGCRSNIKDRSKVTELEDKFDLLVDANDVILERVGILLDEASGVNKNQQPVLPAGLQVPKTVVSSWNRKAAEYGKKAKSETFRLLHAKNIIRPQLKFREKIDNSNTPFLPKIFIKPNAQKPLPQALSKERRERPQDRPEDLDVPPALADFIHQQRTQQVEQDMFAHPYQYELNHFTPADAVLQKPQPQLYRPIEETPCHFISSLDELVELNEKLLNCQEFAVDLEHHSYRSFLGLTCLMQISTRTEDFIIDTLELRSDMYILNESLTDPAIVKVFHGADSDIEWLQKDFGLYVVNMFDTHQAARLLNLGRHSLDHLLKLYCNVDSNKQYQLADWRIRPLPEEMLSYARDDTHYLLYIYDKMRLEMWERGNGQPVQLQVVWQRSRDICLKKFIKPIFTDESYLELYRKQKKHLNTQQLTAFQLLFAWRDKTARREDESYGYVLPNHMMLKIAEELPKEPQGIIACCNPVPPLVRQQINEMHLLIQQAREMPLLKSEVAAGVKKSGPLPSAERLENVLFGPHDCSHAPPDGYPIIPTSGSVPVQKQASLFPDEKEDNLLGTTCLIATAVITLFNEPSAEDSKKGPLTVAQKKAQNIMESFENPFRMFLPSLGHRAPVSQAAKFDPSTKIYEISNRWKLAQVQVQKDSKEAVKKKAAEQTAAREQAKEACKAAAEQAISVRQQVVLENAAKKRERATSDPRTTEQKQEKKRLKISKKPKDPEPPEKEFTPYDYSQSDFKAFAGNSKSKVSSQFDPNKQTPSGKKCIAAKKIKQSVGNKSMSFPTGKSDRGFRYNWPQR


Key:
FLAG-DGCR8 (human) = molecular target: T1, FLAG-DGCR8 (human); assay: co-IP; anti-T7 or anti-FLAG immunoprecipitation of overexpressed T7-DGCR8, FLAG-DGCR8, FLAG-Drosha (and T7-DGCR8 dRBD1&2 mut) from transfected HEK293T cells; western blot of endogenous partners; in the presence or absence of RNase A (Figure 1C)
FLAG-Drosha = molecular target: T2, FLAG-Drosha; assay: as above
T7-DGCR8 (human) = molecular target: T3, T7-DGCR8 (human); assay: as above
[1] = molecular target: T4, hRRP6 (human (endogenous in HEK293T)); assay: co-IP; reciprocal immunoprecipitation of endogenous DGCR8 and endogenous hRRP6, western blot; in the presence or absence of RNase A

Row | binding (FLAG-DGCR8 (human)) | binding (FLAG-Drosha) | binding (T7-DGCR8 (human)) | binding [1] | Molecule
1 | binds | no binding | binds |  | hRRP41 (from UniProt Q9NPD3 1-245)
2 | binds | no binding | binds |  | hRRP40 (from UniProt Q9NQT5 1-275)
3 |  |  |  | binds | DGCR8 (endogenous) (protein, UniProt Q8WYQ5 1-773) METDESPSPLPCGPAGEAVMESRARPFQALPREQSPPPPLQTSSGAEVMDVGSGGDGQSELPAEDPFNFYGASLLSKGSFSKGRLLIDPNCSGHSPRTARHAPAVRKFSPDLKLLKDVKISVSFTESCRSKDRKVLYTGAERDVRAECGLLLSPVSGDVHACPFGGSVGDGVGIGGESADKKDEENELDQEKRVEYAVLDELEDFTDNLELDEEGAGGFTAKAIVQRDRVDEEALNFPYEDDFDNDVDALLEEGLCAPKKRRTEEKYGGDSDHPSDGETSVQPMMTKIKTVLKSRGRPPTEPLPDGWIMTFHNSGVPVYLHRESRVVTWSRPYFLGTGSIRKHDPPLSSIPCLHYKKMKDNEEREQSSDLTPSGDVSPVKPLSRSAELEFPLDEPDSMGADPGPPDEKDPLGAEAAPGALGQVKAKVEVCKDESVDLEEFRSYLEKRFDFEQVTVKKFRTWAERRQFNREMKRKQAESERPILPANQKLITLSVQDAPTKKEFVINPNGKSEVCILHEYMQRVLKVRPVYNFFECENPSEPFGASVTIDGVTYGSGTASSKKLAKNKAARATLEILIPDFVKQTSEEKPKDSEELEYFNHISIEDSRVYELTSKAGLLSPYQILHECLKRNHGMGDTSIKFEVVPGKNQKSEYVMACGKHTVRGWCKNKRVGKQLASQKILQLLHPHVKNWGSLLRMYGRESSKMVKQETSDKSVIELQQYAKKNKPNLHILSKLQEEMKRLAEEREETRKKPKMSIVASAQPGGEPLCTVDV
4 |  | no binding |  |  | hDIS3 (enzyme, UniProt Q9Y2L1 1-958) MLKSKTFLKKTRAGGVMKIVREHYLRDDIGCGAPGCAACGGAHEGPALEPQPQDPASSVCPQPHYLLPDTNVLLHQIDVLEDPAIRNVIVLQTVLQEVRNRSAPVYKRIRDVTNNQEKHFYTFTNEHHRETYVEQEQGENANDRNDRAIRVAAKWYNEHLKKMSADNQLQVIFITNDRRNKEKAIEEGIPAFTCEEYVKSLTANPELIDRLACLSEEGNEIESGKIIFSEHLPLSKLQQGIKSGTYLQGTFRASRENYLEATVWIHGDNEENKEIILQGLKHLNRAVHEDIVAVELLPKSQWVAPSSVVLHDEGQNEEDVEKEEETERMLKTAVSEKMLKPTGRVVGIIKRNWRPYCGMLSKSDIKESRRHLFTPADKRIPRIRIETRQASTLEGRRIIVAIDGWPRNSRYPNGHFVRNLGDVGEKETETEVLLLEHDVPHQPFSQAVLSFLPKMPWSITEKDMKNREDLRHLCICSVDPPGCTDIDDALHCRELENGNLEVGVHIADVSHFIRPGNALDQESARRGTTVYLCEKRIDMVPELLSSNLCSLKCDVDRLAFSCIWEMNHNAEILKTKFTKSVINSKASLTYAEAQLRIDSANMNDDITTSLRGLNKLAKILKKRRIEKGALTLSSPEVRFHMDSETHDPIDLQTKELRETNSMVEEFMLLANISVAKKIHEEFSEHALLRKHPAPPPSNYEILVKAARSRNLEIKTDTAKSLAESLDQAESPTFPYLNTLLRILATRCMMQAVYFCSGMDNDFHHYGLASPIYTHFTSPIRRYADVIVHRLLAVAIGADCTYPELTDKHKLADICKNLNFRHKMAQYAQRASVAFHTQLFFKSKGIVSEEAYILFVRKNAIVVLIPKYGLEGTVFFEEKDKPNPQLIYDDEIPSLKIEDTVFHVFDKVKVKIMLDSSNLQHQKIRMSLVEPQIPGISIPTDTSNMDLNGPKKKKMKLGK
